The other results are listed elsewhere or left out. These are further read-outs of the screen, such as a control signal, another cell line or another target. No call is given for them. Most of these compounds were active or inconclusive in the main read-out, so they are no random draw. Words in brackets tell the shape of the fitted curve; partial curves, single points and poor fits give uncertain potencies.
Assay: qHTS Assay for Lipid Storage Modulators in Drosophila S3 Cells;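 on cell number change: cells counted by Cell Tracker Red CMTPX staining in the red channel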
Settings: BODIPY lipid droplet fluorescence, 18-24 h; for cell number change: measured here: cell count max response, cells fed with added oleic acid
Summary of the method: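 Laser-scanning cytometry quantifies lipid droplet accumulation (500–530 nm total intensity; droplet/cell object ratio) in oleic acid-fed (400 uM added) Drosophila S3 cells treated with a concentration series. 20 uM Triacsin C defined 100% inhibition.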

[1] = measured here: lipid fluorescence (Fed channel) AC50, cells fed with added oleic acid
[2] = measured here: cell number channel AC50, cells fed with added oleic acid

| Compound | cell number change | AC50 [1] | AC50 [2] |
| --- | --- | --- | --- |
| Cc1ccc(CCN2CC(C(=O)NCCCN3CCCCCC3)CC2=O)cc1 (centres undefined) | 3.82% | 1.3 µM [falling, full curve, poor fit] |  |
| CCc1cc2c(SCC(=O)N3CC(=O)Nc4ccccc43)ncnc2s1 | 37.8% | 9.2 µM [rising, partial curve] | 8.2 µM [rising, partial curve] |
| Oc1ccc(N2CCN(c3ncnc4sc5c(c34)CCC5)CC2)cc1 | -21.4% | 20.6 µM [falling, partial curve] |  |
| CCOc1ccccc1OCC(=O)Nc1ccc(N2CCOCC2)cc1N1CCOCC1 | 53.4% |  | 14.6 µM [rising, partial curve] |
| CCCOc1ccc(-c2nc(-c3ccc([N+](=O)[O-])cc3)cs2)cc1 | -11.1% | 18.4 µM [falling, single point] |  |
| O=C(CCCN1C(=O)/C(=C\c2ccco2)SC1=S)Nc1cccc2ccccc12 | 20.9% |  |  |
| O=C(N/N=C/c1cccnc1)c1cc(-c2cccs2)nc2ccccc12 | 27.8% |  |  |
| FC(F)(F)Oc1ccc(Nc2nc3ccccc3o2)cc1 | -37.3% | 32.6 µM [falling, single point] | 13 µM [falling, partial curve] |
| Oc1ccccc1C=NCCN=Cc1ccccc1O | 14.8% |  |  |
| COc1cccc2c(=O)c(SC(F)(F)C(F)C(F)(F)F)c(C)[nH]c12 (centres undefined) | -4.76% | 0.82 µM [rising, partial curve, poor fit] |  |
| O=c1[nH]c(/C=C\c2cccc(F)c2)nc(O)c1[N+](=O)[O-] | 3.23% |  |  |
| Cc1ccc(-c2nnc(N3CCOCC3)c3ccccc23)cc1S(=O)(=O)N(C)C | 18.1% |  | 0.116 µM [rising, full curve, poor fit] |
| O/C(=C\Sc1nnc(Cc2ccccc2)o1)c1ccc(F)cc1 | -6.94% | 6.51 µM [rising, single point] |  |
| CCOC(=O)C1CCCN(C(=O)c2ccc3c(c2)N(C)C(=O)/C(=C/c2ccccc2Cl)S3)C1 (centres undefined) | -9.44% | 1.84 µM [falling, partial curve] | 2.31 µM [falling, partial curve] |
| CC(=O)c1c(C)[nH]c(C(=O)COc2cc(C)ccc2C(C)C)c1C | -22.2% | 0.58 µM [falling, partial curve] | 1.16 µM [falling, partial curve, poor fit] |
| CCOC(=O)C1(Cc2cccc(OC)c2)CCN(C/C=C/c2ccc(OC)cc2)CC1 | -41% | 29.1 µM [falling, single point] | 25.9 µM [falling, single point] |
| CCOc1ccc(OCCC(=O)OC(C)C(=O)Nc2ccc(Cl)cn2)cc1 (centres undefined) |  | 16.4 µM [falling, single point] |  |
| COc1cc(C(=O)OCC(=O)NC(=O)c2cccn2C)ccc1OC(F)F | 12.5% |  | 0.116 µM [falling, full curve, poor fit] |
| CCOc1ccccc1CN1CCNC(=O)C1CC(=O)NCc1ccccn1 (centres undefined) | -17.1% |  |  |
| Cc1cc(C)c2c3c(sc2n1)C1(CCSCC1)C(C#N)=C(N)O3 | -39.4% |  | 18.4 µM [falling, single point] |
| CCc1ccc(OCCCCN(C)Cc2ccccc2)cc1 | 2.93% |  |  |
| O=C(c1cccc([N+](=O)[O-])c1)N1CCN(c2ncccn2)CC1 | 34.1% | 29.1 µM [rising, single point] | 29.1 µM [rising, single point] |

| Compound | cell number change | AC50 [1] | AC50 [2] |
| --- | --- | --- | --- |
| COc1ccccc1NC(=O)COc1ccccc1C(=O)Nc1ccccc1 | 16.6% |  |  |
| COc1ccc(/C=N/N=C/c2ccc(OC)cc2)cc1 | 65.5% |  | 29.1 µM [rising, single point] |
| CN1CC2(C(=O)c3ccccc3)CN(C)CC(C(=O)c3ccccc3)(C1)C2 | -14.8% | 1.84 µM [falling, partial curve] |  |
| C/C(=N/NC(=O)CNS(=O)(=O)c1ccc(C)cc1)c1cccc([N+](=O)[O-])c1 | 35% |  | 1.03 µM [rising, full curve] |
| O=c1c2sccc2nc(SCc2ccc([N+](=O)[O-])cc2)n1Cc1ccccn1 |  | 0.58 µM [rising, full curve] |  |
| COc1ccc(Br)cc1CNC(=O)CCc1nc(-c2ccccc2F)no1 | 17.7% |  | 0.731 µM [rising, full curve, poor fit] |
| CCOc1ccc(CNC(=O)c2ccc3nc(N4CCOCC4)sc3c2)cc1 | 20.1% |  |  |
| NC1=NC(=O)/C(=C\c2ccco2)S1 | -16.6% | 0.291 µM [falling, partial curve, poor fit] |  |
| Cc1ccc(C)c(NC(=O)Cc2nc(CCl)cs2)c1 | -18.3% |  | 0.103 µM [falling, full curve, poor fit] |
| O=C1c2ccsc2SCCN1Cc1ccccc1Cl | -4.06% |  |  |
| O=C1c2c(O)cccc2C(C2OC(CO)[C@@H](O)[C@H](O)[C@H]2O)c2cc(CO)cc(O)c21 (some centres undefined) | -58.6% |  | 29.1 µM [falling, single point] |
| CC(=O)Nc1ccc(S(=O)(=O)NCc2ccc(C(=O)N3CCOCC3)cc2)cc1 |  | 0.116 µM [rising, single point] |  |
| Cc1ccc(-c2nn(C)c(=O)c3ccccc23)cc1CNS(C)(=O)=O | -10.9% |  |  |
| O=C(NCCS(=O)(=O)N1CCN(c2ccc(F)cc2)CC1)c1ccc2c(c1)OCO2 |  |  | 2.91 µM [rising, partial curve, poor fit] |
| CC1=C(C#N)C(=O)NC(=O)/C1=C\c1ccc(-c2cc(C)c(C)cc2[N+](=O)[O-])o1 | 15.6% |  |  |
| COc1ccc(C(=O)Cn2cnc3ccc(Cl)cc3c2=O)cc1F | 15.3% |  |  |
| COc1ccc(-n2nc3c(N4CCC(C(=O)N5CCC(C)CC5)CC4)nnc(C)c3c2C)cc1 | 5.51% | 29.1 µM [falling, single point] | 1.64 µM [rising, partial curve, poor fit] |
| CCOC(=O)c1snc(C(=O)NC2CCCCC2)c1N | -11.9% |  |  |
| O=C(C1=C(O)C(=O)N(CCN2CCOCC2)C1c1ccc(F)cc1)c1cccs1 (centres undefined) |  | 29.1 µM [falling, single point] |  |
| CC(C)c1ccc(NC(=O)C2CCCN(S(=O)(=O)c3cnc[nH]3)C2)cc1 (centres undefined) | 12.8% | 2.31 µM [rising, single point] |  |
| O=C(NCc1ccccc1CN1CCCC1)C1CCN(S(=O)(=O)c2ccc(F)c(F)c2)CC1 | -10.8% | 3.66 µM [falling, full curve] |  |
| CC(=O)NCCN1C(=O)S/C(=C\c2cccs2)C1=O | -6% |  |  |

| Compound | cell number change | AC50 [1] | AC50 [2] |
| --- | --- | --- | --- |
| CCOc1ccc(N(CC(=O)NC2CCCC2)C(=O)c2ccc(C)s2)cc1 | 2.94% | 0.231 µM [rising, partial curve, poor fit] |  |
| CCCCSc1nc(O)c(Cc2ccccc2)c(=O)[nH]1 | 10.9% | 29.1 µM [rising, single point] |  |
| O=C(Cc1csc(Nc2nc(=S)[nH]c3ccccc23)n1)NCc1ccccc1Cl | -8.62% | 0.326 µM [falling, full curve, poor fit] |  |
| C=CCn1cc(C(=O)OC)c(=O)c2cc(S(=O)(=O)N(CC)CC)ccc21 | -15.9% | 3.66 µM [falling, partial curve] |  |
| C=CCSc1ncc(-c2ccccc2)cn1 | 1.96% | 6.51 µM [falling, single point] | 6.51 µM [falling, single point] |
| CCNC(=S)NNC(=O)Cn1nc(C)cc1C | 18.1% |  |  |
| Cc1ccc2[nH]c(-c3ccccc3)c(CN3CCOCC3)c(=O)c2c1 | -2.8% | 0.651 µM [falling, full curve] |  |
| Cc1cc(C)c(CSc2ncc(-c3ccc([N+](=O)[O-])cc3)[nH]2)c(C)c1 | -30.5% | 29.1 µM [falling, single point] | 29.1 µM [falling, single point] |
| Cc1nc(-c2cn[nH]c2)c2cc(C)oc2n1 | -33.6% |  | 23.1 µM [falling, partial curve, poor fit] |
| CCc1cc(C(=O)c2ccc(OC)cc2)c(NC(=O)CN2CCCC2)s1 | -5.57% |  |  |
| CN(C)c1ccc(C(=S)Nc2ccccc2)cc1 | 31.7% |  | 11.6 µM [rising, partial curve, poor fit] |
| COCCN(CCOC)S(=O)(=O)c1ccc(C(=O)Nc2nc(C)c(C(C)=O)s2)cc1 | -1.49% |  |  |
| Cc1cc(C)c2cc(C(=O)N3CCC(N4CCCCC4)CC3)[nH]c2c1 | 37.8% | 6.51 µM [rising, single point] | 18.4 µM [rising, partial curve, poor fit] |
| COC(=O)[C@@H]1CCCN1Cc1c(C(=O)N2CCCCC2)nc2c(C)cccn12 | 14.3% |  |  |
| CC(=O)C1=C(O)C(=O)N(c2cc(C(C)(C)C)on2)C1c1ccc(C(C)C)cc1 (centres undefined) | -14.9% | 0.0326 µM [falling, full curve, poor fit] |  |
| CC1CC(C)CN(C(=S)NC2CCCCC2)C1 (centres undefined) | 3.44% | 16.4 µM [falling, partial curve, poor fit] |  |
| CCc1ccc(-c2cc(C)no2)cc1S(=O)(=O)NC(C)Cc1ccco1 (centres undefined) | -20.9% |  |  |
| O=C(Nc1ccccc1)C1CC(=O)N(C2CCCCC2)C1 (centres undefined) | 17.3% |  |  |
| CC(C)Sc1nc(N2CCCC2)c2c(c1C#N)CC(C)(C)OC2 | -39.3% | 6.51 µM [rising, single point] | 29.1 µM [falling, single point] |
| C/C=C(\C)CN1CCC(n2nccc2NC(=O)CCCc2ccccc2)CC1 | -0.867% | 16.4 µM [rising, partial curve, poor fit] |  |

A second format for part of the listing above.
O=C(Nc1ccccc1)C1CC(=O)N(C2CCCCC2)C1 (centres undefined)
  cell number change: 17.3%
CC(C)Sc1nc(N2CCCC2)c2c(c1C#N)CC(C)(C)OC2
  cell number change: -39.3%; AC50 [1]: 6.51 µM [rising, single point]; AC50 [2]: 29.1 µM [falling, single point]
C/C=C(\C)CN1CCC(n2nccc2NC(=O)CCCc2ccccc2)CC1
  cell number change: -0.867%; AC50 [1]: 16.4 µM [rising, partial curve, poor fit]

Reference: PubChem BioAssay AID2685 (National Center for Advancing Translational Sciences (NCATS), 2010)
